Reference: the supplement of paper PMC12578635
The other results are listed elsewhere or left out. Rule as the data show it: active = 150% or more and inactive = the rest. Many values rest on one well or one pass, so single values are uncertain.

The compounds below were run on Staphylococcus aureus JE2-lux inside RAW 264.7 macrophages (assay: intracellular bacterial bioluminescence relative to DMSO vehicle; higher = higher intracellular bacterial metabolic activity). Conditions: 10 µM; treatment time 4 h; gentamicin 50 µg/ml.

Row | Structure (SMILES) | intracellular bacterial bioluminescence
1 | COc1cccc(-c2cc3nc(C)c(Cl)c(O)n3n2)c1 | inactive: 122%
2 | COCCCNc1c(-c2ccc(C)cc2)nc2sc3cc(C)ccc3n12 | inactive: 97%
3 | O=C1NC2=C(C(=O)N(CCO)C2)C(c2ccc(OCc3ccccc3)cc2)N1 (configuration not stated) | inactive: 100%
4 | CC(=O)C(C)n1c(=O)c2c(nc3n(-c4ccc(F)cc4)c(-c4ccccc4)cn23)n(C)c1=O (configuration not stated) | inactive: 91.4%
5 | Cc1cc(-c2csc(S(=O)(=O)Nc3cccc(Br)c3)c2)on1 | inactive: 22.8%
6 | CC12CC(NC(=O)N1c1cccc(C(=O)O)c1)c1cc(Br)ccc1O2 (configuration not stated) | inactive: 115%
7 | Cc1c(C(=O)Nc2c(C(=O)Nc3ccc4c(c3)OCCO4)oc3ccccc23)cccc1[N+](=O)[O-] | inactive: 72.1%
8 | O=C(Cn1cnc2c(nnn2Cc2ccc(F)cc2)c1=O)Nc1ccccc1C(F)(F)F | inactive: 76.2%
9 | COc1ccc(-c2n[nH]c3nc(-c4ccc(Cl)cc4)cc(C(=O)NCc4ccc(C)cc4)c23)cc1 | active: 175%
10 | Cc1nn(Cc2c(F)cccc2Cl)c(=O)c2noc(C)c12 | inactive: 72.8%
11 | C=CCn1c(SCC(=O)Nc2sc3c(c2C(=O)OCC)CCC3)nc2ccccc2c1=O | inactive: 101%
12 | CCOC(=O)c1c(C)oc2ncn(Cc3ccccc3)c(=O)c12 | inactive: 79.6%
13 | COc1ccccc1N1C(=O)N(c2ccccc2Cl)C2CS(=O)(=O)CC21 (configuration not stated) | inactive: 104%
14 | N#Cc1cc2cc3c(cc2nc1N1CCCN(C(=O)Nc2ccc(Cl)cc2)CC1)OCO3 | inactive: 74.7%
15 | COc1cc(NC(=O)CSC2=NS(=O)(=O)c3ccccc3N2)cc(OC)c1 | inactive: 98.1%
16 | O=C(NNc1nc2c(Cl)cccc2s1)C1COc2ccccc2O1 (configuration not stated) | inactive: 69.9%
17 | Cn1c(=O)c2c(SCC(=O)NCc3ccco3)ccnc2n(C)c1=O | inactive: 43.7%
18 | COc1cc2c(cc1OC)C(COc1ccc([N+](=O)[O-])cc1)N(C(=S)NC(C)(C)C)CC2 (configuration not stated) | inactive: 63.8%
19 | COc1ccc(CCN2CCc3c(C)c(C#N)c4nc5ccccc5n4c32)cc1OC | inactive: 52.3%
20 | CCN(CCNC(=O)c1ccc2nc(N3CCN(c4ncccn4)CC3)ccc2n1)c1cccc(C)c1 | inactive: 104%
21 | CC(C)c1cc(C(=O)NC(c2ccncc2)c2ccc(Cl)cc2)n(C)n1 (configuration not stated) | inactive: 106%
22 | O=C(NC1CC1)c1ccc(S(=O)(=O)N2CCC(NC(=O)c3cccc(F)c3)CC2)cc1 | inactive: 104%
23 | Cc1cc2nc(NC(=O)Nc3cccc(F)c3)sc2cc1C | inactive: 78.9%

Row | Structure (SMILES) | intracellular bacterial bioluminescence
24 | CC1CCCN(c2ccc(NS(=O)(=O)c3ccc4[nH]c(=O)[nH]c(=O)c4c3)cc2)C1 (configuration not stated) | inactive: 113%
25 | CC1=NNC(=O)/C1=N\Nc1ccc(S(=O)(=O)N2CCOCC2)cc1 | inactive: 68.4%
26 | O=C(CSc1ncnc2c1oc1ccccc12)Nc1ccc(Br)cc1 | inactive: 79%
27 | CC1Cc2ccccc2N1C(=O)CCn1c(=O)oc2ccccc21 (configuration not stated) | inactive: 75.9%
28 | COc1ccccc1C(=O)n1nc(-c2ccccc2Cl)nc1N | inactive: 136%
29 | Cc1sc2nc(SC/C=C/c3ccccc3)[nH]c(=O)c2c1C | inactive: 97.3%
30 | Cc1cc(Nc2ccc(C)c(F)c2)n2nc(Cc3cccc(F)c3)nc2n1 | inactive: 48.5%
31 | COc1cccc(-n2c(C)c(C)c3c2ncn2nc(-c4ccccc4Br)nc32)c1 | inactive: 96.3%
32 | Cc1ccc(-c2cnc3c(-c4ccc(Cl)cc4)cnn3c2N)cc1 | inactive: 119%
33 | CC12CC(NC(=O)N1Cc1ccccc1)c1ccccc1O2 (configuration not stated) | inactive: 95.8%
34 | CCn1c(=O)[nH]c(=O)c2cnc(-c3ccc(OC)cc3)nc21 | inactive: 104%
35 | CCOC(=O)c1ccc(CC2SC(=N)NC2=O)cc1 (configuration not stated) | inactive: 128%
36 | COc1ccc(C(NC(=O)c2cccc3c(C)c(C)[nH]c23)c2ccncc2)cc1 (configuration not stated) | inactive: 82.7%
37 | Oc1nc(SCc2c(F)cccc2Cl)nc2[nH]cnc12 | inactive: 114%
38 | COC(=O)c1sc2nc(N)c(C#N)c(-c3ccco3)c2c1N | inactive: 114%
39 | Cc1cccc(-c2nc(N)n(C(=O)Cc3ccc(Cl)cc3)n2)c1 | inactive: 118%
40 | COc1cccc(-c2csc(/C(C#N)=C/Nc3cc(Cl)ccc3OC)n2)c1 | inactive: 98.1%
41 | CC(=O)Nc1ccc(S(=O)(=O)N2CCN=C2SCc2ccc([N+](=O)[O-])cc2)cc1 | inactive: 96.9%
42 | CCCCC(=O)N1CCN(c2nc3ccccc3cc2-c2noc(C)n2)CC1 | inactive: 131%
43 | COc1ccc(-n2nnc3c(SCC(=O)NCC4CCCO4)ncnc32)cc1 (configuration not stated) | inactive: 82.1%
44 | O=C(CCN1C(=O)c2cccc3cccc(c23)C1=O)NC1CCS(=O)(=O)C1 (configuration not stated) | inactive: 113%
45 | CC(=O)c1ccc(Nc2nc(C)nc3c2c(C)c(C)n3-c2ccc(F)cc2)cc1 | inactive: 90.1%
46 | Cc1nc2c(ccc3nc(NC(=O)c4cc(-c5cccs5)nc5ccccc45)sc32)s1 | inactive: 96.8%

Three compounds drawn at random from the list so far, as already listed:
Row | Structure (SMILES) | intracellular bacterial bioluminescence
39 | Cc1cccc(-c2nc(N)n(C(=O)Cc3ccc(Cl)cc3)n2)c1 | inactive: 118%
11 | C=CCn1c(SCC(=O)Nc2sc3c(c2C(=O)OCC)CCC3)nc2ccccc2c1=O | inactive: 101%
38 | COC(=O)c1sc2nc(N)c(C#N)c(-c3ccco3)c2c1N | inactive: 114%

Next compounds.

Row | Structure (SMILES) | intracellular bacterial bioluminescence
47 | O=C(CSc1nc2c(cnn2-c2ccc(F)cc2)c(=O)[nH]1)N1CCOCC1 | inactive: 107%
48 | CCOc1ccc(C(=O)NC2CC3CCCC(C2)N3C(=O)Nc2ccc(F)cc2)cc1 (configuration not stated) | inactive: 78.3%
49 | COc1ccc(-c2nnc3ccc(SCC(=O)Nc4c(C)cc(C)cc4C)nn23)cc1 | inactive: 45.5%
50 | O=C(Nc1nc2ccc3ccccc3c2s1)c1c(F)cccc1F | inactive: 68.5%
51 | COc1ccc2c(Cl)c(C(=O)NCCC3=CCCCC3)sc2c1 | inactive: 112%
52 | CCn1c(SCC(=O)Nc2ccccc2C(=O)OC)nc2cccnc21 | inactive: 72%
53 | Cc1ccc(S(=O)(=O)Nc2cc(C(=O)N(C)Cc3ccccc3)cnc2N2CCNCC2)cc1C | inactive: 56.9%
54 | CC(NC(=O)c1ccccc1)c1nc(-c2ccc3c(c2)nnn3C)no1 (configuration not stated) | inactive: 98.9%
55 | CC(=O)NC(=O)c1cc2c(ccc3ccccc32)o/c1=N\c1ccc(F)cc1F | inactive: 95.5%
56 | Cc1oc(-c2ccccc2Cl)nc1CS(=O)(=O)CC(=O)NCc1ccc(F)cc1 | inactive: 65.3%
57 | COc1ccc(OC)c(NC(=O)c2sc3[nH]c(=O)c(C(=O)O)cc3c2N)c1 | inactive: 101%
58 | Cc1ccc(S(=O)(=O)Nc2ccc3nncn3n2)cc1 | inactive: 73.7%
59 | CCCCN1CCn2c(nc3cc(NC(=O)NC4CCCCC4)ccc32)C1 | inactive: 46.8%
60 | O=C(C1=C(O)C(=O)N(Cc2cccnc2)C1c1cccc(Br)c1)c1cccs1 (configuration not stated) | inactive: 139%
61 | COc1ccc(C(=O)NC2CCN(C(=O)NCc3ccccc3)CC2)cc1 | inactive: 89.6%
62 | CCOc1cccc2c1OC(c1cccnc1)N1N=C(c3cccs3)CC21 (configuration not stated) | inactive: 56.8%
63 | O=C(c1ccc2c(c1)OCCO2)C1CCN(C(=S)Nc2ccc(F)cc2)CC1 | inactive: 67%
64 | COc1ccc(NC(C)=O)cc1NC(=O)c1cn(C)nc1OC | inactive: 114%
65 | Cc1cccc(-c2ccc(C(=O)NCC(C)C)cn2)c1 | inactive: 42.3%
66 | COC(=O)C1=C(NC(=O)c2cc3ccccc3oc2=O)CCS1 | inactive: 83.8%
67 | Cc1cc(NC(=O)CSc2nc(=O)cc(N)n2-c2ccc(F)cc2)no1 | inactive: 114%
68 | CCN1CCCC1CNC(=O)C(=O)c1cn(CC(=O)N2CCCCCC2)c2ccccc12 (configuration not stated) | inactive: 85.6%
69 | COc1ccc2nc(NC(=O)CSc3ncccc3C(=O)O)sc2c1 | inactive: 125%

Row | Structure (SMILES) | intracellular bacterial bioluminescence
70 | Cc1ccc(NCc2cc3cc4c(cc3n(CC(=O)Nc3cc(F)ccc3F)c2=O)OCCO4)cc1 | inactive: 67.4%
71 | CCc1cccc2c(O)c(C(=O)NCc3cccnc3)cnc12 | inactive: 94.1%
72 | Cc1nc2nc(Cc3cccc(F)c3)nn2c(O)c1C | inactive: 87.3%
73 | CC(C)c1csc(-c2csc(S(=O)(=O)Nc3ccc(Br)cc3F)c2)n1 | inactive: 98.5%
74 | CCN1CCN(c2nc(NCCCN3CCOCC3)nc(N)c2[N+](=O)[O-])CC1 | inactive: 124%
75 | O=C(O)c1cccc(Nc2nc(-c3ccccc3)c3cc(Cl)ccc3n2)c1 | inactive: 110%
76 | Cc1cc2c(cc1C)NC(CC(=O)NC1CCCCC1)C(=O)N2 (configuration not stated) | inactive: 81.6%
77 | Cc1nn(-c2cccc(Cl)c2)c2nc(-c3ccccn3)cc(C(F)(F)F)c12 | inactive: 93.5%
78 | COc1ccc2nc3sc(C(=O)NCCc4c[nH]c5ccccc45)c(N)c3cc2c1 | inactive: 114%
79 | CC1CCCCN1c1nc2c(c(=O)[nH]c(=O)n2C)n1Cc1ccccc1 (configuration not stated) | inactive: 121%
80 | O=C(Nc1ccccc1)N1CCC(n2cnc3cc(F)ccc32)CC1 | inactive: 99%
81 | O=C(CSc1nc2ccccc2n1Cc1ccccc1F)Nc1ccc2c(c1)OCCO2 | inactive: 58.2%
82 | Cc1cccc(NC(=O)c2cccc3c2-c2ccccc2C3=O)n1 | inactive: 91.1%
83 | CC1(C)COc2ccc(NC(=O)C3CCCC3)cc2NC1=O | inactive: 115%
84 | COC(=O)c1sc(-c2ccccc2)cc1NC(=O)c1cc(OC)cc(OC)c1 | inactive: 123%
85 | NC(=O)c1cc2cc(Cl)ccc2o/c1=N/NC(=O)c1cccc(F)c1 | inactive: 109%
86 | CCCc1nnc(SCC(=O)Nc2cccc(C(F)(F)F)c2)n1-n1cccc1 | inactive: 31.3%
87 | CCOc1ccccc1CNC(=O)C1CCCN(c2nc(C)nc3onc(C)c23)C1 (configuration not stated) | inactive: 102%
88 | COc1ccc(C(=O)CSc2nc3c(C)cc(C)cc3cc2C#N)cc1OC | inactive: 97.1%
89 | Cc1ccc(C)c(NC(=O)c2c(-c3ccccc3Cl)noc2C)c1 | inactive: 62%
90 | COC(=O)c1sccc1NC(=O)CSc1nccnc1N1CCN(c2cccc(C)c2C)CC1 | inactive: 62.5%
91 | COc1ccccc1-n1c(CNC(=O)c2ccccc2F)n[nH]c1=S | inactive: 97.2%
92 | CCCCc1ccc(NC(=O)CSC2=NS(=O)(=O)c3cc(F)ccc3N2)cc1 | inactive: 124%
